# Measurements reported in PubChem BioAssay AID504648 (National Center for Advancing Translational Sciences (NCATS), 2011).
# The whole screen tested about 390,000 compounds, of which about 610 (0.16%) were called active. This list was built around the results that the source calls inconclusive (neither active nor inactive); the mix of calls is not that of the screen. The call rests on the fitted dose curve; in most records, active means well fitted inhibition curve with a large enough effect; inconclusive means small, poorly fitted or top-dose-only effect, or effect the other way, or another doubt; inactive means no such curve, though single readings can be large or run the other way. Where the call is inconclusive, the potency comes from a doubtful curve fit.
# Test: Nrf2 qHTS screen for inhibitors: counterscreen for cytotoxicity
# Settings: A549 ARE-Fluc cells, CellTiter-Fluor viability, 18-24 h; activity change, negative = cytotoxicity: at 46 µM (top of the series)
# Method in brief: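 A549 ARE-Fluc cells in 5% FBS OPTI-MEM, 5000 cells/well, rested 2 h then exposed to compounds in concentration-response for 18-24 h at 37 °C. Viability by CellTiter-Fluor fluorescence (Ex 405/Em 525) after 30 min; luciferase luminescence (BugLite, 15 min, RT) read afterwards.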
# On the % scale 0 is the no-effect control and ±100 the full control effect; potency means the concentration at half of the fitted maximal effect.
SMILES,Potency,"activity change, negative = cytotoxicity"
C=CC(=O)N1C/C(=C/c2ccccc2)C(=O)/C(=C\c2ccccc2)C1,"inconclusive: 18.4 µM [falling, single point]",–
Cc1cccc(NC(=O)CSc2nsc(SCC(=O)Nc3cccc(C)c3)c2C#N)c1,–,inactive: -2.91%
CCS(=O)(=O)N1CCN(c2ccccc2)CC1,–,inactive: -9.83%
COC(=O)c1sccc1S(=O)(=O)N(CC(=O)NCc1ccc(C)cc1)c1ccc(C)cc1,–,inactive: -0.577%
Fc1ccc(-c2nc(Nc3cccc(C(F)(F)F)c3)nc3c2COc2ccccc2-3)cc1,"inconclusive: 16.4 µM [falling, single point]",–
COc1ccccc1NS(=O)(=O)c1ccc(N/N=C/c2c(C)nn(-c3ccccc3)c2N2CCCC2)c([N+](=O)[O-])c1,"inconclusive: 13 µM [falling, partial curve]",–
CCN(c1ccccc1)S(=O)(=O)c1ccc(C(=O)Nc2nnc(C3CC3)o2)cc1,"inconclusive: 14.6 µM [falling, partial curve]",–
Cc1csc(NC(=O)c2sc3nc(-c4cccs4)ccc3c2N)n1,"inconclusive: 0.58 µM [activator, full curve, poor fit]",–
O=C(COc1ccc(-n2cnnn2)cc1)Nc1cc(Cl)cc(Cl)c1,"inconclusive: 29.1 µM [falling, single point]",–
Cc1ccc(C(=O)Nc2cccc(S(=O)(=O)N(C)c3ccccc3)c2)o1,–,inactive: 1.03%
Cn1c(N)c(C(=O)CSc2nc3ccccc3c(=O)n2Cc2ccccc2)c(=O)n(C)c1=O,"inconclusive: 14.6 µM [falling, partial curve, poor fit]",–
CCn1cc(CNC(=O)/C=C/c2ccc([N+](=O)[O-])cc2)c(C)n1,"inconclusive: 20.6 µM [activator, partial curve, poor fit]",–
COc1ccc(C(=O)Nc2cccc(-c3nc4ncccc4o3)c2C)cc1OC,"inconclusive: 18.4 µM [falling, single point]",–
Cc1ccc(C)c(-n2c(=O)c(C#N)cc3c(=O)n4ccccc4nc32)c1,"inconclusive: 18.4 µM [activator, partial curve, poor fit]",–
COc1ccc(-c2nc(CSCC(=O)N3CCN(c4ccc(F)cc4)CC3)c(C)o2)cc1,–,inactive: -8.04%
Cc1ccc(C(=O)NCCNc2nc3cc(C)c(C)cc3cc2C)cc1,–,inactive: -0.752%
Cc1cccc(Cc2c(C)nc3c(-c4ccccc4)c(C)[nH]n3c2=O)c1,"inconclusive: 18.4 µM [falling, single point]",–
Cc1ccc(C(C)C)c(OCC(O)CN2CCc3ccccc3C2)c1 (stereo not drawn),"inconclusive: 29.1 µM [falling, single point]",–

# Complete entries, quoted from the list. Order of values: Potency | activity change, negative = cytotoxicity
# Cc1csc(NC(=O)c2sc3nc(-c4cccs4)ccc3c2N)n1 in the list: inconclusive: 0.58 µM [activator, full curve, poor fit] | –
# Cc1cccc(NC(=O)CSc2nsc(SCC(=O)Nc3cccc(C)c3)c2C#N)c1 in the list: – | inactive: -2.91%
